Laboratory results reported in PMC9716621.
These are yes or no findings as the source states them, for the method shown. In cells and extracts the contact can be indirect. Some results given as binding are weak or reduced against the parent protein; the word gives no strength.

By UniProt entry, the sequences of proteins in these tests, tags left out. Where a name states a change or a piece, a line headed by the entry shows the natural chain unless it says otherwise.
UniProt P14416: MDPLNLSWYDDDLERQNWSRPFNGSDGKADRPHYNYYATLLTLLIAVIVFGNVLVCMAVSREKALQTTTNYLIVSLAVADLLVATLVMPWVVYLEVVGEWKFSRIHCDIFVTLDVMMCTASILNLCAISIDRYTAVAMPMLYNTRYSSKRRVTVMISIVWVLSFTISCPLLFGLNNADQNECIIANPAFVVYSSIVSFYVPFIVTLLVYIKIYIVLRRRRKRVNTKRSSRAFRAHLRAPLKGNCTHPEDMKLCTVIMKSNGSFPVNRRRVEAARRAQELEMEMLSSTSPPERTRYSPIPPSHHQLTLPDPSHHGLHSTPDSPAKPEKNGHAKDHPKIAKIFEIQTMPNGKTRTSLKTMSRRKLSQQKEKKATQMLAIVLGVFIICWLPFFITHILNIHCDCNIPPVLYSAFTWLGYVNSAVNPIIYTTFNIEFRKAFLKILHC

Target: HA-tagged M1R (muscarinic acetylcholine M1 receptor) (UniProt P11229)
Assay: co-IP; lysates of HEK293T cells 48 h after transfection; immunoprecipitation with a mouse anti-HA antibody, immunoblot with rabbit anti-FLAG and rabbit anti-HA antibodies

- binding: binds
Substance: FLAG-D2R (dopamine D2 receptor) (from UniProt P14416 1-443)
